According to publication PMC8751613:
No constants are given. Whether binding was seen depends on the method and setting. In cells and extracts the contact can be indirect. Some binding calls cover weakened binding; strength is not graded here.

By UniProt entry, the sequences of proteins in these tests, tags left out.
UniProt P29350: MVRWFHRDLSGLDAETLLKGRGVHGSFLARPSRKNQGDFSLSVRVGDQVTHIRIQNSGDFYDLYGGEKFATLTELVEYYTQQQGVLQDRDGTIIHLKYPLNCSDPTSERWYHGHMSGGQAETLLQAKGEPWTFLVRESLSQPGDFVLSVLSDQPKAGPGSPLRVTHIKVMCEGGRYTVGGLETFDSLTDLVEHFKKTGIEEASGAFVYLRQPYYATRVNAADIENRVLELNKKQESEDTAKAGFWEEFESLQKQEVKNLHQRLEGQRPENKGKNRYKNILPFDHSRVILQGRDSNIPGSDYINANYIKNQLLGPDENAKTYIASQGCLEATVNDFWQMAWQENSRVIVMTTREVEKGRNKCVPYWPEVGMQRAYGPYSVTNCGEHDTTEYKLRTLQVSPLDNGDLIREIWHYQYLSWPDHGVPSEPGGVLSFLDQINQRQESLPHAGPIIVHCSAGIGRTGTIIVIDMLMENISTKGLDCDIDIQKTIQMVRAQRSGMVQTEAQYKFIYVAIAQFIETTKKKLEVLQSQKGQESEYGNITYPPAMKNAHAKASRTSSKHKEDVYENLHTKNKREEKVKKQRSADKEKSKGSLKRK
UniProt P49841: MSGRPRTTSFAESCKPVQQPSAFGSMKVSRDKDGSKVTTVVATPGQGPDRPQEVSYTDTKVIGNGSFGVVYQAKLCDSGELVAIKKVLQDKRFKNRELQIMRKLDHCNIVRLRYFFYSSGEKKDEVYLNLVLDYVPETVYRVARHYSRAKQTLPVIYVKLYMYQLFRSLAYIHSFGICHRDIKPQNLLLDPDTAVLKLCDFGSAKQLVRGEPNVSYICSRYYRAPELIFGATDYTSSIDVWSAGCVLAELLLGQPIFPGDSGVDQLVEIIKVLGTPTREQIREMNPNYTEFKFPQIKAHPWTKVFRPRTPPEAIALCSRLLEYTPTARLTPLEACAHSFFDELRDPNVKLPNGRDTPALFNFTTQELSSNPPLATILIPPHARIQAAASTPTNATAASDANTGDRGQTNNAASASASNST

Biological target: PTPN6 (human (endogenous in BMSCs)) (UniProt P29350)
Assay: co-IP; total protein lysate of BMSCs (IP-lysis buffer) mixed with anti-PTPN6 antibody or anti-IgG antibody and protein A/G Dynabeads at 4°C overnight; beads washed three times; immunoprecipitates subjected to western blotting

In the case of GSK-3β (from UniProt P49841 1-420), the binding is reported as “binds”.
